Measurements published in the supplement of paper PMC10849652.
The other results are listed elsewhere or left out.

Sequences of proteins named here, by UniProt entry; tags and fusion partners are left off. A change or cut given only in a name is not applied to a line headed by its entry.
UniProt Q99933: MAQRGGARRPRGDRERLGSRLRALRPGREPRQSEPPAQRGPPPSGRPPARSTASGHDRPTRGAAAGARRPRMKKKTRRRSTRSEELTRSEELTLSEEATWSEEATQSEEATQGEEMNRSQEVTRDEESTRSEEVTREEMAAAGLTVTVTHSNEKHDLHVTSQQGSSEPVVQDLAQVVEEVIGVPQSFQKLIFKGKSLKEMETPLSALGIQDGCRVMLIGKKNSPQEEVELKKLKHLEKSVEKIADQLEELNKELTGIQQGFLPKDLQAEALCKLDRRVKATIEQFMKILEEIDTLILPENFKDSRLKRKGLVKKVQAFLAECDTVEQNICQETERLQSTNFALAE
UniProt Q9NR09, whole entry, looked up: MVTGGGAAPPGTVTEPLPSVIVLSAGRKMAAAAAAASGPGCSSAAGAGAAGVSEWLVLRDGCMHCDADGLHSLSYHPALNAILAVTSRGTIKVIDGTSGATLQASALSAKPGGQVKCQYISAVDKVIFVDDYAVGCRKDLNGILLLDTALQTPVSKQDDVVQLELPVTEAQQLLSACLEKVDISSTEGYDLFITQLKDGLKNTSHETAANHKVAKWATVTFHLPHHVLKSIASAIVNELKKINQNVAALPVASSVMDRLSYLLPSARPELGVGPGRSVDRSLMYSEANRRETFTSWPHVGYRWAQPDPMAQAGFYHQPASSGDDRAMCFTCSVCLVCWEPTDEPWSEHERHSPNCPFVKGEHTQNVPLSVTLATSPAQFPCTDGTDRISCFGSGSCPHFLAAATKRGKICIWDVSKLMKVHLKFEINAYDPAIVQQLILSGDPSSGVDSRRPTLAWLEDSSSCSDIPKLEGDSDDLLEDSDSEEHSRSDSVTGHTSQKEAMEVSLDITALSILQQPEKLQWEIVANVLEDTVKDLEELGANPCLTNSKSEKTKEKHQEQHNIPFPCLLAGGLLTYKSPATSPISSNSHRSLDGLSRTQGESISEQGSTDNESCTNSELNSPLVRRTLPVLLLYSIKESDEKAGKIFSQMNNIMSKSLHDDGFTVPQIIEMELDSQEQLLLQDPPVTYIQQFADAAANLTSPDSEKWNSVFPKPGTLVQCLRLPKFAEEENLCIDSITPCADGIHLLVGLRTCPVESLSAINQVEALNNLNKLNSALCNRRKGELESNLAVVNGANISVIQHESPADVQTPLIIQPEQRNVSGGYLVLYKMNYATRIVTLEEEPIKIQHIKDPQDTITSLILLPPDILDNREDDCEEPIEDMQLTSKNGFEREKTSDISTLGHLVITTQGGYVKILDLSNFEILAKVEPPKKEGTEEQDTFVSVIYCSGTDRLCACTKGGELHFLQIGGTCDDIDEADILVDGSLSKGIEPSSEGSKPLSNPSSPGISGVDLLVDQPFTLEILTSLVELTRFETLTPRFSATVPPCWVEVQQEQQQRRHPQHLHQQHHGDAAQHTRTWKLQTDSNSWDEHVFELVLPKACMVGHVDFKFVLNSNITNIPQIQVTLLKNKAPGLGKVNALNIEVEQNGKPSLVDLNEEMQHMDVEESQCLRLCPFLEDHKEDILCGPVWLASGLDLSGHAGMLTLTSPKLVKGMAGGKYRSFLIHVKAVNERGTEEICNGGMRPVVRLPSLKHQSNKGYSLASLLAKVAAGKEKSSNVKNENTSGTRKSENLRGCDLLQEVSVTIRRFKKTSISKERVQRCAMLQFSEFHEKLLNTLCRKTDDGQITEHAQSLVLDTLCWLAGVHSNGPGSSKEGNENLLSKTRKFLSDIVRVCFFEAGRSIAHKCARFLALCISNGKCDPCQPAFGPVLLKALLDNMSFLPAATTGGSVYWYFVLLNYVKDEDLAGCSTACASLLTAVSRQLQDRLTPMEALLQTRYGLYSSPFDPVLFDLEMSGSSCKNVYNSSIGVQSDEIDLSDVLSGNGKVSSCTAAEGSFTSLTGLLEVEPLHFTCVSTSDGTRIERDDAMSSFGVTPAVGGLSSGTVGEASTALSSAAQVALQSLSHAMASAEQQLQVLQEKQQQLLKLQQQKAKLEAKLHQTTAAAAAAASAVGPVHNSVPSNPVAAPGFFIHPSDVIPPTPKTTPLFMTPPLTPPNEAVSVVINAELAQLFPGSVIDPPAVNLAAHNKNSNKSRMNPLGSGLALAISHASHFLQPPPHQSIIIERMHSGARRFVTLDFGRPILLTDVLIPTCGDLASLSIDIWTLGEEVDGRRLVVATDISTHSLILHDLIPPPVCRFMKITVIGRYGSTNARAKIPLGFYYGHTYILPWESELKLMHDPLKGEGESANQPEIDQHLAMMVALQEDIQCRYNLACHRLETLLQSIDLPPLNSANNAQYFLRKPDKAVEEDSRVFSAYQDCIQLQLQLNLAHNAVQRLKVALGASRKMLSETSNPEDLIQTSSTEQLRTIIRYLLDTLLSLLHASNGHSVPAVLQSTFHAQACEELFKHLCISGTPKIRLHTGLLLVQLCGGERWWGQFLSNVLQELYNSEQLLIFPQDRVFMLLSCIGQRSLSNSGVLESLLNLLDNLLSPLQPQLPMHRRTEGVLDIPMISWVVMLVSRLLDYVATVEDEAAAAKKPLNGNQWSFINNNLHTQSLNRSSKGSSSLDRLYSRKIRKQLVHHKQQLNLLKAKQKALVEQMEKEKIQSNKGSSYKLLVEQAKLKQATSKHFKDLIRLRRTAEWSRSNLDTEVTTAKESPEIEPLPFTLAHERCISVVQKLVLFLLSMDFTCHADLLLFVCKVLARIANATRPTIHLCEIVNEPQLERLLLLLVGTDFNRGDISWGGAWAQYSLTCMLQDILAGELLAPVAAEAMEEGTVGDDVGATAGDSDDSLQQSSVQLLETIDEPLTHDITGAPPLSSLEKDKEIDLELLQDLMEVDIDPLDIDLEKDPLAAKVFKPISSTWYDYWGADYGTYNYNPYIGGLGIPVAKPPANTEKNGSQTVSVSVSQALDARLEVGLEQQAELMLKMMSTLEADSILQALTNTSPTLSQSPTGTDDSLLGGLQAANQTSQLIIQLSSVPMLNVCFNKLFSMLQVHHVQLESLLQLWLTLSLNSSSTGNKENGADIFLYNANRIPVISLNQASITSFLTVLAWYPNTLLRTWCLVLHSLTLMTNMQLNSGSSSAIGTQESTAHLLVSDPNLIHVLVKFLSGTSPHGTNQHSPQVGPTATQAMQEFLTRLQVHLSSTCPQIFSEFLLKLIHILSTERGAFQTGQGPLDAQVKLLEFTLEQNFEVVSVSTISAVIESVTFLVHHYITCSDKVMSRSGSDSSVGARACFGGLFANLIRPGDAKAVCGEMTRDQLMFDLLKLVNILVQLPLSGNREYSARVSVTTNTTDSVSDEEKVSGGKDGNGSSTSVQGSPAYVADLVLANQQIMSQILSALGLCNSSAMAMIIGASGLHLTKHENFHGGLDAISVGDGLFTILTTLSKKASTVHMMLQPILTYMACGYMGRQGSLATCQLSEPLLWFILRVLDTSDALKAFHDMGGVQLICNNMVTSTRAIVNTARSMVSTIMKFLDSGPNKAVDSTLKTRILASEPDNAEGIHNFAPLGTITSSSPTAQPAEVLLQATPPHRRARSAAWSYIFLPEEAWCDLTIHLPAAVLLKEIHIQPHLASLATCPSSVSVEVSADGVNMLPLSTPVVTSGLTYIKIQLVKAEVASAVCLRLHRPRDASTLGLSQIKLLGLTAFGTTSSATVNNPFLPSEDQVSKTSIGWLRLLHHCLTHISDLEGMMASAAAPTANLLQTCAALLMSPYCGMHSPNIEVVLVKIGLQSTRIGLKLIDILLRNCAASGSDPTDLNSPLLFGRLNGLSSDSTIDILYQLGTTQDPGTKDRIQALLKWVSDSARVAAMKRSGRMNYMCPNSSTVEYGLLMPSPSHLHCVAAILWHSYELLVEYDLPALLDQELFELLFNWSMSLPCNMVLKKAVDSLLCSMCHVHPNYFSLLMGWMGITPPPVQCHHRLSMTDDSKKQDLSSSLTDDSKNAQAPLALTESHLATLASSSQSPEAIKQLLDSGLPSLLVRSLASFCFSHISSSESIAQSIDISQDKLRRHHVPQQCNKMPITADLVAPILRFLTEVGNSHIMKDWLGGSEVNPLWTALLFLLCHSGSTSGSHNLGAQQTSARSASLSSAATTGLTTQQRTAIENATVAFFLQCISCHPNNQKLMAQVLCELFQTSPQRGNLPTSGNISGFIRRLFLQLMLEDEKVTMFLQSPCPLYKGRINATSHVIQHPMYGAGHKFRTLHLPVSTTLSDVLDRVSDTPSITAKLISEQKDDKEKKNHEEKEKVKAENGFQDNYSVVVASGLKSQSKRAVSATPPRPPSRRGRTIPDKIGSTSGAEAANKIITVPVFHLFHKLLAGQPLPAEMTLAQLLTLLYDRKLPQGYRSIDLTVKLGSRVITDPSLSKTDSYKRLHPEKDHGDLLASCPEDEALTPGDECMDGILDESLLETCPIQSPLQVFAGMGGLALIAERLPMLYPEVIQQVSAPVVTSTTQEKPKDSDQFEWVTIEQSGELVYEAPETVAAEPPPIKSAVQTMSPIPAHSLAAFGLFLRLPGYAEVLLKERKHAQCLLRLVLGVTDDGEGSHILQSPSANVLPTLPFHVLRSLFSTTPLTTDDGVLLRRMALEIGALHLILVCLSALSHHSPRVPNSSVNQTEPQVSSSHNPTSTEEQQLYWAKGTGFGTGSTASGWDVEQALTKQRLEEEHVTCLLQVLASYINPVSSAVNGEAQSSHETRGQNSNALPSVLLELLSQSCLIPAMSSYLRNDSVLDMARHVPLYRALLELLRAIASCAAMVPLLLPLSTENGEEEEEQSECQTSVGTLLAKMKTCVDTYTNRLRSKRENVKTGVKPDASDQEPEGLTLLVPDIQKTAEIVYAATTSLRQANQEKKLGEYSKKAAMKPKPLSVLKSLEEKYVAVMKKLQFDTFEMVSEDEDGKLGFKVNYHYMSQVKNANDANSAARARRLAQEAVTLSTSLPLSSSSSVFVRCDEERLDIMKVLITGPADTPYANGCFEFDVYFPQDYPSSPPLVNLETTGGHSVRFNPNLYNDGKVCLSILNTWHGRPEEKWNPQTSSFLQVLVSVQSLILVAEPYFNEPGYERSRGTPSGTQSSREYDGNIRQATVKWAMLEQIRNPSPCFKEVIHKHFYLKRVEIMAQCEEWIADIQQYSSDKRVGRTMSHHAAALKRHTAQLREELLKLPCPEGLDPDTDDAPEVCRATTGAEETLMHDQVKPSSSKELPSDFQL
UniProt P10415, whole entry, looked up: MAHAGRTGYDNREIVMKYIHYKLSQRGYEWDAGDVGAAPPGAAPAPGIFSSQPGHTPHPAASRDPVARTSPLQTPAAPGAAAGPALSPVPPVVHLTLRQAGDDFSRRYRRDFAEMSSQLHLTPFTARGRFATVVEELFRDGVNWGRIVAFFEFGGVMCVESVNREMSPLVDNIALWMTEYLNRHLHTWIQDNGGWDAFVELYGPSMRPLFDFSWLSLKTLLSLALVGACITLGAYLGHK
UniProt Q12981: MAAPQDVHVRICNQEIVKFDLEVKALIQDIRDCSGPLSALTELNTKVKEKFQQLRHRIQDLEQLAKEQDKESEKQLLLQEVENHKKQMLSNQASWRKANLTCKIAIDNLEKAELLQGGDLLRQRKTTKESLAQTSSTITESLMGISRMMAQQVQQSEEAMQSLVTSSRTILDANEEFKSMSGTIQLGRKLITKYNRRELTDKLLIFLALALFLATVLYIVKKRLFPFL
UniProt Q92843: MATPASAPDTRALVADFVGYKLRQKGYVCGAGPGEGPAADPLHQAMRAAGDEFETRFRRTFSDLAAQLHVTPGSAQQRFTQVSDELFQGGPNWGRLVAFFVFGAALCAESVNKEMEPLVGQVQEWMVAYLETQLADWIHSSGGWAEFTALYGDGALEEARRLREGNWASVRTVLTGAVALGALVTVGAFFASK
UniProt Q9P287, whole entry, looked up: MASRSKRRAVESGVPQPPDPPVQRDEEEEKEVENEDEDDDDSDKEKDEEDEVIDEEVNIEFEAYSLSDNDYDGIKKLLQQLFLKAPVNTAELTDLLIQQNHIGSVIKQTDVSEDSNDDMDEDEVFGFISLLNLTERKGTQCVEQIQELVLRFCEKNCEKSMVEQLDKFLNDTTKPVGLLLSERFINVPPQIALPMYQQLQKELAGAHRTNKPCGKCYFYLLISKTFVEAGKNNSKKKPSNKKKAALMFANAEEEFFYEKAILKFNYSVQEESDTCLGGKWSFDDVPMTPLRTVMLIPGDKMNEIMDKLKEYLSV
UniProt P35613: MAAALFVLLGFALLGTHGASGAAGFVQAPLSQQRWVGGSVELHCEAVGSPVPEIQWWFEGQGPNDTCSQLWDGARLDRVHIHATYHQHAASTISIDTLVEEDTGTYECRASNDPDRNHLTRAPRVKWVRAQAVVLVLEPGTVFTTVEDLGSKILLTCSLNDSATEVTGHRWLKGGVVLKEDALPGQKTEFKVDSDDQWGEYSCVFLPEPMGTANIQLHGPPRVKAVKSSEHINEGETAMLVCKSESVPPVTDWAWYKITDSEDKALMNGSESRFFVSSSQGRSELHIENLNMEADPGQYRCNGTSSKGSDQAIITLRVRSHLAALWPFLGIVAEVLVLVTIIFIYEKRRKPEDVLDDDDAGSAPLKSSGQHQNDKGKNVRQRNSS

What was measured:
Assay in all cases: log2 fold change, soluble protein after heating vs DMSO (PISA); higher = thermal stabilisation; K562 lysate, 10 uM; active = over 0.2 and 3.5 SD of the protein, either way, in both replicates (recomputed)
[1] = compound: C1=CC=C(C=C1)[C@H](COC2=CC3=C(C=C2)NC(=O)N3)NC(=O)C4=CC=CN(C4=O)CC5=CC(=C(C=C5)F)F
Procedure, shortened: (§1)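 Values give the log-two fold change in thermal stability against solvent controls, from duplicates. Crude K562 extract at 1 mg/mL protein, made by dounce homogenisation in PBS pH 7.4 with 1 mM MgCl2, was treated with 10 μM compound for 30 min. After 3 min heating across 48°C-58°C, aliquots were pooled, adjusted to 0.5% NP-40 at 4°C and centrifuged at 21,000xg for 90 min. The supernatant was measured by TMTpro 16plex LC-MS/MS with channel sums equalised.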

[2] = compound: CC1=C(SC2=C1C(=N[C@H](C3=NN=C(N32)C)CC(=O)N)C4=CC=C(C=C4)Cl)C
Procedure, shortened: as §1

[3] = compound: CC1=C2C(=CC=C1)N=C(N(C2=O)C3=CC=CC=C3C)CN4C=NC5=C(N=CN=C54)N
Procedure, shortened: as §1

[4] = compound: Cc1sc2c(c1C)C(c1ccc(Cl)cc1)=N[C@@H](CC(=O)OC(C)(C)C)c1nnc(C)n1-2
Procedure, shortened: as §1

[5] = compound: c1ccc([C@@H]2C[C@H]2NC2CCNCC2)cc1
Procedure, shortened: as §1

Measured: log2 fold change

BOP1 (UniProt Q14137)
inactive: [1] 0.014 | [2] 0.017 | [3] 0 | [4] 0.002 | [5] -0.017

BCL7C isoform 2 (UniProt Q8WUZ0)
inactive: [1] 0.017 | [2] 0.016 | [3] -0.066 | [4] 0.059 | [5] 0.013

BRAF (UniProt P15056)
inactive: [1] -0.024 | [2] -0.051 | [3] 0.012 | [4] -0.017 | [5] -0.06

BAG1 (UniProt Q99933)
inactive: [1] 0.016 | [2] -0.011 | [3] -0.009 | [4] 0.028 | [5] -0.067

BARD1 (UniProt Q99728)
inactive: [1] 0.062 | [2] -0.089 | [3] -0.042 | [4] -0.011 | [5] -0.143

BLMH (UniProt Q13867)
inactive: [1] 0.017 | [2] 0.007 | [3] -0.018 | [4] -0.027 | [5] -0.058

BLOC1S2 (UniProt Q6QNY1)
inactive: [1] 0.147 | [2] 0.071 | [3] -0.09 | [4] -0.096 | [5] -0.091

BCL2L13 (UniProt Q9BXK5)
inactive: [1] 0.093 | [2] -0.006 | [3] 0.029 | [4] -0.013 | [5] -0.027

BIRC6 (UniProt Q9NR09)
inactive: [1] 0.001 | [2] 0.003 | [3] -0.007 | [4] 0.004 | [5] 0.004

BCAP31 isoform 2 (UniProt P51572)
inactive: [1] -0.011 | [2] -0.025 | [3] -0.019 | [4] 0.001 | [5] -0.035

BCKDHA (UniProt P12694)
inactive: [1] 0.049 | [2] -0.041 | [3] 0.134 | [4] -0.044 | [5] -0.027

BCL2 (UniProt P10415)
inactive: [1] -0.02 | [2] 0.032

BPGM (UniProt P07738)
inactive: [1] 0.032 | [2] -0.041 | [3] 0.076 | [4] 0.051 | [5] 0.045

BNIP2 (UniProt J3KN59)
inactive: [1] 0.014 | [2] -0.037 | [3] 0.012 | [4] -0.009 | [5] 0.037

BST2 (UniProt Q10589)
inactive: [1] -0.022 | [2] -0.003 | [3] -0.037 | [4] 0.014 | [5] -0.045

BCL2L12 (UniProt Q9HB09)
inactive: [1] 0.162 | [2] 0.119 | [3] 0.035 | [4] -0.011 | [5] -0.044

BMS1 (UniProt Q14692)
inactive: [1] 0.047 | [2] -0.036 | [3] 0.027 | [4] 0.013 | [5] -0.029

BNIP1 (UniProt Q12981)
inactive: [1] 0.021 | [2] -0.051 | [3] 0.001 | [4] 0.018 | [5] 0.149

BCL2L2 isoform 2 (UniProt Q92843)
inactive: [1] 0.031 | [2] -0.008 | [3] -0.01 | [4] 0.028 | [5] -0.037

BTF3L4 (UniProt Q96K17)
inactive: [1] 0.038 | [2] -0.07 | [3] -0.021 | [4] -0.058 | [5] -0.031

BCLAF1 (UniProt Q9NYF8)
inactive: [1] 0.048 | [2] -0.016 | [3] 0.043 | [4] -0.034 | [5] 0.1

BPNT1 (UniProt A6NF51)
inactive: [1] -0.005 | [2] -0.019 | [3] -0.076 | [4] -0.197

BCCIP (UniProt Q9P287)
inactive: [1] -0.001 | [2] -0.008 | [3] -0.026 | [4] 0.008 | [5] 0.042

BCAS2 (UniProt O75934)
inactive: [1] 0.006 | [2] -0.023 | [3] 0.028 | [4] 0.015 | [5] 0.04

BOLA3 (UniProt Q53S33)
inactive: [1] 0.006 | [2] -0.012 | [3] 0.015 | [4] -0.002 | [5] -0.073

BLOC1S1 (UniProt P78537)
inactive: [1] 0.009 | [2] 0 | [3] -0.014 | [4] -0.002 | [5] 0.039

BRAP (UniProt Q7Z569)
inactive: [1] 0.016 | [2] -0.013 | [3] 0.011 | [4] 0.006 | [5] -0.046

BOLA2 (UniProt Q9H3K6)
inactive: [1] -0.052 | [2] 0.01 | [3] -0.019 | [4] 0.034 | [5] 0.078

Three neighbouring entries out of the list so far:
BOLA3 (UniProt Q53S33)
inactive: [1] 0.006 | [2] -0.012 | [3] 0.015 | [4] -0.002 | [5] -0.073

BLOC1S1 (UniProt P78537)
inactive: [1] 0.009 | [2] 0 | [3] -0.014 | [4] -0.002 | [5] 0.039

BRAP (UniProt Q7Z569)
inactive: [1] 0.016 | [2] -0.013 | [3] 0.011 | [4] 0.006 | [5] -0.046

Following part

BABAM2 (UniProt Q9NXR7)
inactive: [1] 0.023 | [2] -0.045 | [3] 0.015 | [4] -0.001 | [5] -0.012

BROX (UniProt Q5VW32)
inactive: [1] -0.007 | [2] 0.002 | [3] -0.007 | [4] 0.001 | [5] 0.039

BECN1 (UniProt Q14457)
inactive: [1] -0.001 | [2] -0.058 | [3] 0.013 | [4] -0.011 | [5] -0.017

B4GALT3 (UniProt O60512)
inactive: [1] 0.004 | [2] 0.032 | [3] 0.095 | [4] 0.016 | [5] 0.096

BRCA2 (UniProt P51587)
inactive: [1] -0.248 | [2] -0.051 | [3] -0.039 | [4] -0.146 | [5] -0.086

BORA (UniProt Q6PGQ7)
inactive: [1] -0.036 | [2] 0.014 | [3] -0.251 | [4] 0.158 | [5] -0.126

BAG6 isoform 3 (UniProt P46379)
inactive: [1] -0.011 | [2] 0.025 | [3] -0.007 | [4] -0.039 | [5] 0.075

BOD1L1 (UniProt Q8NFC6)
inactive: [1] 0.02 | [2] -0.022 | [3] -0.001 | [4] -0.051 | [5] -0.052

BCOR (UniProt Q6W2J9)
inactive: [1] 0.031 | [2] 0.096 | [3] -0.107 | [4] -0.02 | [5] -0.287

BTAF1 (UniProt O14981)
inactive: [1] 0.013 | [2] 0 | [3] -0.005 | [4] 0.04 | [5] -0.02

BANP (UniProt Q8N9N5)
inactive: [1] 0.027 | [2] 0.026 | [3] 0.139 | [4] 0.04 | [5] -0.05

BICD1 (UniProt Q96G01)
inactive: [1] 0.04 | [2] 0.006 | [3] -0.022 | [4] 0.046 | [5] 0.027

BSDC1 (UniProt Q9NW68)
inactive: [1] 0.155 | [2] -0.025 | [3] 0.021 | [4] -0.004 | [5] -0.026

BLOC1S6 (UniProt Q9UL45)
inactive: [1] -0.078 | [2] 0.035 | [3] -0.04 | [4] -0.046 | [5] 0.021

BAX isoform 2 (UniProt Q07812)
inactive: [1] -0.008 | [2] -0.003 | [3] 0.007 | [4] -0.067 | [5] 0.043

BCS1L (UniProt Q9Y276)
inactive: [1] -0.071 | [2] 0.044 | [3] 0.052 | [4] 0.048 | [5] -0.022

BTD isoform 3 (UniProt P43251)
inactive: [1] 0.141 | [2] 0.014 | [3] -0.07 | [4] 0.021 | [5] 0.035

BAG3 (UniProt O95817)
inactive: [1] 0.022 | [2] 0.023 | [3] -0.016 | [4] -0.001 | [5] -0.007

BSG (UniProt P35613)
inactive: [1] -0.009 | [2] 0.017 | [3] -0.005 | [4] -0.007 | [5] 0.008

BTF3 (UniProt P20290)
inactive: [1] 0.009 | [2] -0.006 | [3] -0.013 | [4] -0.017 | [5] 0.012

BCL9L (UniProt Q86UU0)
inactive: [1] -0.108 | [2] -0.015 | [3] -0.031 | [4] -0.047 | [5] 0.005

BTBD6 (UniProt Q96KE9)
inactive: [1] 0.072 | [2] 0.057 | [3] -0.054 | [4] -0.108 | [5] -0.387

BABAM1 (UniProt Q9NWV8)
inactive: [1] 0.081 | [2] 0.005 | [3] 0.067 | [4] -0.008 | [5] -0.036

BICD2 isoform 2 (UniProt Q8TD16)
inactive: [1] 0.006 | [2] 0.026 | [3] 0 | [4] -0.035 | [5] -0.005

BCAR1 isoform 6 (UniProt P56945)
inactive: [1] 0.01 | [2] 0.013 | [3] -0.045 | [4] -0.043 | [5] 0.107
